Sequences and labels used below:
B1: FAM120A (protein, UniProt Q9NZB2 1-1118)
chain: MGVQGFQDYIEKHCPSAVVPVELQKLARGSLVGGGRQRPPQTPLRLLVDADNCLHRLYGGFYTDWVSGGQWNHMLGYLAALAKACFGGNIELFVFFNGALEKARLHEWVKRQGNERQTAQQIVSHVQNKGTPPPKVWFLPPVCMAHCIRLALIRFHVKVAQSIEDHHQEVIGFCRENGFHGLVAYDSDYALCNIPYYFSAHALKLSRNGKSLTTSQYLMHEVAKQLDLNPNRFPIFAALLGNHILPDEDLASFHWSLLGPEHPLASLKVRAHQLVLPPCDVVIKAVADYVRNIQDTSDLDAIAKDVFQHSQSRTDDKVIRFKRAIGYYSATSKPMSFHPPHYLAARPGPFGMPGMVPPHVPPQMLNIPQTSLQAKPVAPQVPSPGGAPGQGPYPYSLSEPAPLTLDTSGKNLTEQNSYSNIPHEGKHTPLYERSSPINPAQSGSPNHVDSAYFPGSSTSSSSDNDEGSGGATNHISGNKIGWEKTGSHSEPQARGDPGDQTKAEGSSTASSGSQLAEGKGSQMGTVQPIPCLLSMPTRNHMDITTPPLPPVAPEVLRVAEHRHKKGLMYPYIFHVLTKGEIKIAVSIEDEANKDLPPAALLYRPVRQYVYGVLFSLAESRKKTERLAFRKNRLPPEFSPVIIKEWAAYKGKSPQTPELVEALAFREWTCPNLKRLWLGKAVEDKNRRMRAFLACMRSDTPAMLNPANVPTHLMVLCCVLRYMVQWPGARILRRQELDAFLAQALSPKLYEPDQLQELKIENLDPRGIQLSALFMSGVDMALFANDACGQPIPWEHCCPWMYFDGKLFQSKLLKASREKTPLIDLCDGQADQAAKVEKMRQSVLEGLSFSRQSHTLPFPPPPALPFYPASAYPRHFGPVPPSQGRGRGFAGVCGFGGPYGETVATGPYRAFRVAAASGHCGAFSGSDSSRTSKSQGGVQPIPSQGGKLEIAGTVVGHWAGSRRGRGGRGPFPLQVVSVGGPARGRPRGVISTPVIRTFGRGGRYYGRGYKNQAAIQGRPPYAASAEEVAKELKSKSGESKSSAMSSDGSLAENGVMAEEKPAPQMNGSTGDARAPSHSESALNNDSKTCNTNPHLNALSTDSACRREAALEAAVLNKEE
B2: COPR5 (protein, UniProt Q9NQ92 1-184)
chain: MDLQAAGAQAQGAAEPSRGPPLPSARGAPPSPEAGFATADHSSQERETEKAMDRLARGTQSIPNDSPARGEGTHSEEEGFAMDEEDSDGELNTWELSEGTNCPPKEQPGDLFNEDWDSELKADQGNPYDADDIQESISQELKPWVCCAPQGDMIYDPSWHHPPPLIPYYSKMVFETGQFDDAED

The chains behind the UniProt entries cited, without tags or fusion partners. Where a name states a change or a piece, a line headed by the entry shows the natural chain unless it says otherwise.
UniProt O14744: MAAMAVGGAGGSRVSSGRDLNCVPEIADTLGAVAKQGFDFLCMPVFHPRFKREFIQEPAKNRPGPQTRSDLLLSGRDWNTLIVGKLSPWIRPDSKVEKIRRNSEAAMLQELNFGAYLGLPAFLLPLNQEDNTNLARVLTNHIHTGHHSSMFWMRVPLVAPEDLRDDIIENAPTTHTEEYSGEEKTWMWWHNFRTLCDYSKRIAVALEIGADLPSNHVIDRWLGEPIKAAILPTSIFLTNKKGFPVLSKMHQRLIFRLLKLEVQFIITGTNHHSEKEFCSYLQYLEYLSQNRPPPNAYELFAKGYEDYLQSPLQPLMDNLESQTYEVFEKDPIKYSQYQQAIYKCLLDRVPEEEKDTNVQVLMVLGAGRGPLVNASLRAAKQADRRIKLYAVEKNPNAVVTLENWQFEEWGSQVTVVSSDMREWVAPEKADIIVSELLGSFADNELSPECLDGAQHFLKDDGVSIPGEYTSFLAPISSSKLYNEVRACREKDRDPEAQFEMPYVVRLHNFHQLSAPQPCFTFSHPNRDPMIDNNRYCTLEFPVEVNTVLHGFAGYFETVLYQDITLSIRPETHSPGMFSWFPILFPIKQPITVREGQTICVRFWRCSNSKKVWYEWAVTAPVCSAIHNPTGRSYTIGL
UniProt Q96AE4: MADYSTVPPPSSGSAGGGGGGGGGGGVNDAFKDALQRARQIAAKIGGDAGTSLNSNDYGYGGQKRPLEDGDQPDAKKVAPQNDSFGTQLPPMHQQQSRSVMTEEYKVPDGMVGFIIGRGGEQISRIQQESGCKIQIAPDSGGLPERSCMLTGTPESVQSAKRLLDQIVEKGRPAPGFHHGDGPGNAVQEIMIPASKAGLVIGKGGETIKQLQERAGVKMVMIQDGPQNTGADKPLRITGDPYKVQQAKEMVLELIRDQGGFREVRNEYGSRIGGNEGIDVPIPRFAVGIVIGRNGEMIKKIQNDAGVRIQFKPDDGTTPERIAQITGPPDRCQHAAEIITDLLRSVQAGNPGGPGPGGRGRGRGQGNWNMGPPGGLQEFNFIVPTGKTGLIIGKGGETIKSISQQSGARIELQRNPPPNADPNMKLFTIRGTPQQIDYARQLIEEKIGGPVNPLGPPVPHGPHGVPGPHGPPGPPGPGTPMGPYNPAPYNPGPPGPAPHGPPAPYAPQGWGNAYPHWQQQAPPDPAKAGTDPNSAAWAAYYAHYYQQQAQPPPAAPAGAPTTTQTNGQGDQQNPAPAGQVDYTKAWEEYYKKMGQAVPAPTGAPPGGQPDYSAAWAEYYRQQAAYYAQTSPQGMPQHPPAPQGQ
UniProt P51116: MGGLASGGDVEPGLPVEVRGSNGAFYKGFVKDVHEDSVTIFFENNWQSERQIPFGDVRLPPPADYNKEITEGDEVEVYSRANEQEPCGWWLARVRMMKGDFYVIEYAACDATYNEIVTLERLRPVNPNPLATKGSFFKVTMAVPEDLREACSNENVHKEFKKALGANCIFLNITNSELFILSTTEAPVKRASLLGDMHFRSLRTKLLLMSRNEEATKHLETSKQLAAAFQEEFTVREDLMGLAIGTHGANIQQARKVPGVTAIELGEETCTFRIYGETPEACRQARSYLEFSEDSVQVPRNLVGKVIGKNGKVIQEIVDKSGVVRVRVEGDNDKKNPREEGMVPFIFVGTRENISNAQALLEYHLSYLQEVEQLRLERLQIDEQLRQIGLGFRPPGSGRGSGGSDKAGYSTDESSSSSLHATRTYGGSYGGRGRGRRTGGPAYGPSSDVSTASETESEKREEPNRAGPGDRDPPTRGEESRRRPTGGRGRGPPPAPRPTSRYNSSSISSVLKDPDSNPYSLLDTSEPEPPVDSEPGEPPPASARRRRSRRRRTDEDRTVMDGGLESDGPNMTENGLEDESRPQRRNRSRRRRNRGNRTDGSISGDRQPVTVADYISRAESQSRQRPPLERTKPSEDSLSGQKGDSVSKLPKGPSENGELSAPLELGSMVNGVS
UniProt Q13283: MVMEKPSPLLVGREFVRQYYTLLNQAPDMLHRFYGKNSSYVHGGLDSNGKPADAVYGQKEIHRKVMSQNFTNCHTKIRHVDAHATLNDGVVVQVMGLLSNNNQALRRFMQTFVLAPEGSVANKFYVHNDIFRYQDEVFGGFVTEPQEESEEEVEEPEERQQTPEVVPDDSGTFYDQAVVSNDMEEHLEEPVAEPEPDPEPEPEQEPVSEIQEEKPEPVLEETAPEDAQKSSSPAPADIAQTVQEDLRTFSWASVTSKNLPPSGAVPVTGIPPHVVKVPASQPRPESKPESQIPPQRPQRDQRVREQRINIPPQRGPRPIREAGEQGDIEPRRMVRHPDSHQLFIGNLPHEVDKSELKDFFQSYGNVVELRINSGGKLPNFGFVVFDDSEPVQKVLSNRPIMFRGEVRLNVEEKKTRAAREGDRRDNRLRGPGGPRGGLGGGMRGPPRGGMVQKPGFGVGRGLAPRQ
UniProt P35637: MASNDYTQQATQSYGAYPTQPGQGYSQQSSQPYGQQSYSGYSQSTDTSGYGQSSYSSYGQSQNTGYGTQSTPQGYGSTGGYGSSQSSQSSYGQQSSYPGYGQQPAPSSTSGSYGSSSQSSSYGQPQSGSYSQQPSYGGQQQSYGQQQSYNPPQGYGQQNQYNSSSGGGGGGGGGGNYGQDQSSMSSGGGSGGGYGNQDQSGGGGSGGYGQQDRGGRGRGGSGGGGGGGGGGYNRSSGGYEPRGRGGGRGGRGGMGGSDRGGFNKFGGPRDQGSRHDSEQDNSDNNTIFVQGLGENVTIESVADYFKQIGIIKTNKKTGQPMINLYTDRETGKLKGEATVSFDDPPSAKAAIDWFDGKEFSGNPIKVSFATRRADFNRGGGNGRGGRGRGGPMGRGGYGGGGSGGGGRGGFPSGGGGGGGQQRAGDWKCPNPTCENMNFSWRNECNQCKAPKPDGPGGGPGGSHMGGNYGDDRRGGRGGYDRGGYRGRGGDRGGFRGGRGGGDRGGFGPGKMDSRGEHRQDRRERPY

These are yes or no findings as the source states them, for the method shown. Binding seen in cells or lysates may run through a third protein. These calls come from enrichment with a bait or labelling near it, and not all partners need be listed.

In this test the target is protein arginine methyltransferase 5 (PRMT5) (human (endogenous in MCF-7 and T47D)) (UniProt O14744). The test is described as follows: affinity purification with mass spectrometry; PRMT5 antibody and rabbit IgG pulldowns of MCF-7_RBKO cell lysates; NP-40 lysis buffer (20 mM Tris-HCl pH 7.6, 150 mM NaCl, 0.1% NP-40, 1 mM EDTA); antibody overnight at 4 °C, protein-G Dyna beads; SDS-PAGE, tryptic digestion, MS; significant: log2FC >= 0.5 and FDR < 0.05.
FUBP1 (from UniProt Q96AE4 1-644): the binding entry is listed as “binds”.
As for FXR2 (from UniProt P51116 1-673), the entry is “binds”.
Regarding G3BP1 (from UniProt Q13283 1-466), the binding entry was “binds”.
For the molecule “fused in sarcoma (FUS) (from UniProt P35637 1-526)”, the binding entry was “binds”.
Then B1, with “binds”.
As for B2, the binding entry was “binds”.
